Laboratory results published in PubChem BioAssay AID493014 (National Center for Advancing Translational Sciences (NCATS), 2011).
Some of the results follow. The main result of the screen is listed elsewhere. These columns were measured beside it and carry no call. Compounds called inactive in the main read-out are mostly missing here. The note in brackets gives the kind of curve behind each potency; many fits are weak.

Assay: qHTS Assay to Find Inhibitors of Chronic Active B-Cell Receptor Signaling
Settings: ABC-DLBCL IkBa-CBG/CBR reporter, luminescence ratio (green luciferase fused to IkBa over red control in TMD8 lymphoma cells), 4 h
Method in brief: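 TMD8 human ABC-DLBCL cells with doxycycline-inducible IκBα–green luciferase fusion and unfused red luciferase, in 0.5% FBS medium; compounds up to 46 uM, 4 h at 37C. Green/red luminescence ratio, filter-overlap corrected, fitted to concentration-response curves.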

[1] = measured here: CBR red luminescence, cell number
[2] = measured here: IkBa-CBG green luminescence

Row | SMILES | AC50 [1] | AC50 [2]
1 | O=C(C1CC1c1ccccc1)N1CCOCC1 (stereo not drawn) | 3.55 µM [rising, full curve, poor fit] | 
2 | CCOc1cc(N2CCOCC2)c(OCC)cc1NC(=O)COC(=O)CCOc1ccc(C)cc1 | 14.6 µM [falling, partial curve] | 8.2 µM [rising, partial curve, poor fit]
3 | O=C(N/N=C/c1ccncc1)c1ccc(NS(=O)(=O)c2cccs2)cc1 | 12.6 µM [falling, partial curve, poor fit] | 
4 | Cc1c(C(=O)Oc2cccc3ccccc23)cnn1-c1ccccc1 | 0.517 µM [rising, full curve, poor fit] | 
5 | O=C1N[C@@H](c2ccccc2)COC(=O)[C@H](Cc2ccc(F)cc2)CC/C=C/C[C@H]1CC(=O)N(CCO)Cc1ccccc1 | 3.26 µM [falling, partial curve] | 
6 | CCOC(=O)C1=C(C)Nc2ncnn2C1c1cc(OC)ccc1OC (stereo not drawn) | 1.64 µM [falling, single point] | 
7 | CCCCCCCCCC(=O)Nn1cnc2ccccc2c1=O | 35.5 µM [rising, single point] | 
8 | COc1cccc(NC(=O)C(=O)N/N=C/c2cc(C)n(-c3ccc(Cl)c(Cl)c3)c2C)c1 | 7.31 µM [falling, partial curve, poor fit] | 
9 | CCN(CC)C(=O)CSc1nc(-c2cccs2)cc(-c2cccs2)c1C#N | 3.26 µM [falling, full curve, poor fit] | 
10 | COC(=O)c1cccc(Nc2ncnc3sccc23)c1 | 35.5 µM [falling, single point] | 
11 | CCCC(=O)OCCNc1cc(Sc2nccn2C)c2nonc2c1[N+](=O)[O-] |  | 3.66 µM [falling, full curve]
12 | O=C(/C=C\c1ccc(-c2cccc([N+](=O)[O-])c2)o1)N1CCOCC1 | 8.91 µM [rising, partial curve, poor fit] | 
13 | Cc1ccc2occ(CN3CCN(c4ccccc4)CC3)c(=O)c2c1 | 20.6 µM [rising, single point] | 
14 | Cc1cc([N+](=O)[O-])ccc1NC(=O)c1cc2ccccc2o1 | 0.501 µM [rising, full curve, poor fit] | 
15 | Cc1occc1C(=O)Nc1cc(C(F)(F)F)ccc1Cl | 0.231 µM [rising, full curve, poor fit] | 
16 | COc1ccc2[nH]c(CN3CCC(CO)(CCOc4ccccc4)CC3)c(C)c2c1 | 35.5 µM [falling, single point] | 

Row | SMILES | AC50 [1] | AC50 [2]
17 | N/C(=N\OC(=O)c1ccccc1[N+](=O)[O-])c1ccccn1 | 25.1 µM [falling, single point] | 
18 | Cc1cccc(C(=O)OCC(=O)N2CCCC2=O)c1O | 16.4 µM [falling, single point] | 
19 | CCOc1ccc(NC(=O)CN(C)C(=O)c2cc(-c3cccs3)nn2-c2ccccc2)cc1OCC | 3.26 µM [rising, single point] | 
20 | c1ccc2c(-c3ccncc3)c[nH]c2c1 | 28.2 µM [falling, single point] | 
21 | CC(=O)Nc1sc(NC(=O)c2ccco2)nc1-c1cccs1 | 0.501 µM [falling, full curve, poor fit] | 
22 | COC(=O)C1=C(C)N(Cc2ccccc2)C(=S)N[C@H]1c1cccc(F)c1 | 35.5 µM [falling, single point] | 
23 | COc1ccc(C2=NS(=O)(=O)N(C)C(C(=O)NCc3ccco3)=C2)cc1OC | 0.112 µM [rising, full curve, poor fit] | 
24 | COc1cccc(C2=NOC(C(=O)Nc3ccccc3SC)C2)c1 (stereo not drawn) | 5.8 µM [falling, partial curve, poor fit] | 
25 | COCCNC(=O)CCCn1c(=O)c2cc(OC)c(OC)cc2n(CC(=O)Nc2ccc(F)cc2)c1=O | 22.4 µM [falling, partial curve, poor fit] | 
26 | CC(C)Cc1nnc(NC(=O)c2ccncc2)s1 | 20 µM [falling, single point] | 
27 | Cc1cc(SCC(=O)c2ccccc2)n2nc(C)nc2n1 | 29.1 µM [falling, single point] | 
28 | Cc1[nH]n(-c2ccc(F)cc2)c(=O)c1/C=N/c1sc2c(c1C#N)CCCC2 | 3.16 µM [falling, full curve] | 
29 | O=C1CCCC2=C1C(c1ccc(Br)cc1)c1c([nH]c(=S)[nH]c1=O)N2 (stereo not drawn) | 23.1 µM [falling, single point] | 
30 | C=CCN(c1ccc(C(=O)NCCc2ccccc2)cc1)S(C)(=O)=O | 32.6 µM [rising, single point] | 
31 | CC1(NC(=O)Cc2csc(-c3cccc(Cl)c3)n2)CCS(=O)(=O)C1 (stereo not drawn) | 1.84 µM [rising, full curve] | 
32 | COc1ccccc1NC(=O)c1ccc(CS(=O)(=O)c2ccc(C)cc2)cc1 | 10 µM [falling, partial curve, poor fit] | 

Entries 27–28 from above:
Row | SMILES | AC50 [1] | AC50 [2]
27 | Cc1cc(SCC(=O)c2ccccc2)n2nc(C)nc2n1 | 29.1 µM [falling, single point] | 
28 | Cc1[nH]n(-c2ccc(F)cc2)c(=O)c1/C=N/c1sc2c(c1C#N)CCCC2 | 3.16 µM [falling, full curve] | 
